Data as given in publication PMC11266262.
Results are given in words; binding and its absence hold for the method and conditions named. Binding seen in cells or lysates may run through a third protein. Some binding calls cover weakened binding; strength is not graded here.

Columns and labels:
[1] = target: T1, Programmed cell death ligand 2 (PD-L2), exogenous (UniProt Q9BQ51); test: co-IP; lysate of PD-L2-overexpressing H1975 and H460 cells in immunoprecipitation lysis buffer; anti-PD-L2 antibody with protein A/G magnetic beads at 4°C overnight; 5 washes; western blot for RGMB
T1 sequence: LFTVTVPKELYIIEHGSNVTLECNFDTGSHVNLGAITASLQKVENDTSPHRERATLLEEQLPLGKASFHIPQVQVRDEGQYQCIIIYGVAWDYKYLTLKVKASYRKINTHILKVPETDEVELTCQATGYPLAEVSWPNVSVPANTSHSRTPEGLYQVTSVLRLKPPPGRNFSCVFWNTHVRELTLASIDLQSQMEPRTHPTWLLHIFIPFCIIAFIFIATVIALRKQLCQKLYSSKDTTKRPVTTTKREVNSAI

[2] = target: T1, Programmed cell death ligand 2 (PD-L2), exogenous; test: proximity ligation; Duolink in situ PLA in fixed H1975 and H460 cells 24 h after transfection with exogenous PD-L2 plasmid; rabbit anti-RGMB and mouse anti-PD-L2 antibodies (1:200); confocal microscopy

B1: Repulsive guidance molecule B (RGMB) (receptor, UniProt Q6NW40 46-413)
chain: GDCQQPAQCRIQKCTTDFVSLTSHLNSAVDGFDSEFCKALRAYAGCTQRTSKACRGNLVYHSAVLGISDLMSQRNCSKDGPTSSTNPEVTHDPCNYHSHAGAREHRRGDQNPPSYLFCGLFGDPHLRTFKDNFQTCKVEGAWPLIDNNYLSVQVTNVPVVPGSSATATNKITIIFKAHHECTDQKVYQAVTDDLPAAFVDGTTSGGDSDAKSLRIVERESGHYVEMHARYIGTTVFVRQVGRYLTLAIRMPEDLAMSYEESQDLQLCVNGCPLSERIDDGQGQVSAILGHSLPRTSLVQAWPGYTLETANTQCHEKMPVKDIYFQSCVFDLLTTGDANFTAAAHSALEDVEALHPRKERWHIFPSSGN
binding [1]: binds | binding [2]: binds
